Results: the supplement of paper PMC12578635
This is one part of the list. Rule as the data show it: active = 150% or more and inactive = the rest. Many values rest on one well or one pass, so single values are uncertain.

test system: Staphylococcus aureus JE2-lux inside RAW 264.7 macrophages; test: intracellular bacterial bioluminescence relative to DMSO vehicle; higher = higher intracellular bacterial metabolic activity; settings: 10 µM; treatment time 4 h; gentamicin 50 µg/ml

Row | SMILES | intracellular bacterial bioluminescence
1 | Cc1ccc(SCCCC(=O)Nc2nc3ccc4sc(C)nc4c3s2)cc1 | inactive: 101%
2 | O=C(CS(=O)(=O)c1ccc(Cl)cc1)Nc1ccc2scnc2c1 | inactive: 120%
3 | Cc1cc2cc(C#N)c(SCC(=O)OCc3ccccc3)nc2cc1C | inactive: 109%
4 | O=C(CSc1nc2ccccc2nc1-c1ccccc1)Nc1ccc2c(c1)OCO2 | inactive: 98.1%
5 | CCCCN(C)C(=O)c1ccc(-c2cccc(F)c2)nc1 | inactive: 87.2%
6 | O=C(Nc1nc2c(s1)CSc1ccccc1-2)c1ccc2c(c1)OCCO2 | inactive: 84.5%
7 | O=C(COc1ccccc1)N1CCN(c2ccc(N3CCOCC3)nn2)CC1 | inactive: 114%
8 | Cc1cc(NC(=O)CSc2nncc(=O)n2N)no1 | inactive: 107%
9 | COc1ccccc1CNc1ncnc(N)c1[N+](=O)[O-] | inactive: 95%
10 | Cc1ccc(CN(C(=O)CC(C)C)c2nc3[nH]c(C)c(C)c(=O)n3n2)cc1 | inactive: 81.1%
11 | CCS(=O)(=O)c1nc2ccccc2n1Cc1cccc2ccccc12 | inactive: 68.9%
12 | Cc1ccc(C(=O)c2sc3nc4c(c(-c5ccco5)c3c2N)CCCCC4)cc1 | inactive: 132%
13 | N#C/C(C(=O)NCc1ccccc1)=C1/N=C(NC(=O)c2cccnc2)c2ccccc21 | inactive: 103%
14 | CCOc1ccc(NC(=O)c2oc3ccccc3c2NC(=O)CC2CCCC2)cc1 | inactive: 82.5%
15 | CCOC(=O)c1cccc(NC(=O)COc2ncnc3oc(C)c(C)c23)c1 | inactive: 4.24%
16 | Cc1c(C(=O)NC(C(=O)OC(C)(C)C)C(C)C)sc2ncn(C)c(=O)c12 (stereo unspecified) | inactive: 108%
17 | CCc1nnsc1C(=O)Nc1ccc(S(N)(=O)=O)cc1 | inactive: 135%
18 | O=C(Nc1nc2c(s1)COc1ccccc1-2)c1cccc(NS(=O)(=O)c2ccc(F)cc2)c1 | inactive: 78.1%
19 | CNC(=O)c1ccsc1NC(=O)c1ccc(S(=O)(=O)N2CCCC2)cc1 | inactive: 76.4%
20 | Nc1cc(OC(=O)c2ccc(F)cc2)nn1S(=O)(=O)c1ccccc1 | inactive: 94.8%
21 | Cc1cc2oc(C(=O)NCc3ccc4c(c3)OCO4)c(C)c2cc1C | inactive: 92.1%
22 | COCCn1ccc2c(OCC(=O)NCc3ccc(C)cc3)cccc2c1=O | inactive: 29.8%
23 | COCCNC(=O)C1CCN(c2nc(-c3ccc(Cl)cc3)no2)CC1 | inactive: 91.2%

Row | SMILES | intracellular bacterial bioluminescence
24 | Cc1nc2cc(F)ccc2n1C1CCN(C(=O)Nc2ccccc2-c2ccccc2)CC1 | inactive: 113%
25 | N#Cc1ccccc1NC(=O)C(=O)NCCSc1nc(-c2ccccc2)c[nH]1 | inactive: 132%
26 | CCOC(=O)C1=C(C)Nc2[nH]c(=O)[nH]c(=O)c2C1c1ccccc1Cl (stereo unspecified) | inactive: 118%
27 | Cc1cc2oc(C(=O)NC3CCCOC3)cc(=O)c2cc1C (stereo unspecified) | inactive: 112%
28 | CC(=O)Nc1nc2cc(NC(=O)c3cccnc3)ccc2s1 | inactive: 106%
29 | O=S(=O)(c1cccc2cccnc12)N1CCN(Cc2noc3ccccc23)CC1 | inactive: 92.6%
30 | CCOC(=O)c1nn(-c2ccccc2)c(=O)cc1OCC(=O)Nc1cc(OC)cc(OC)c1 | inactive: 102%
31 | O=C(NCc1ccc2c(c1)OCO2)c1ccc(=O)[nH]n1 | inactive: 105%
32 | Cc1c(Cc2ccc3c(c2)OCO3)sc(NC(=O)c2ccc(Br)s2)c1C#N | inactive: 52.9%
33 | Cc1cccc(-c2nc3c4ccccc4n(CC(=O)Nc4ccccc4Cl)c(=O)n3n2)c1 | inactive: 112%
34 | CCOC(=O)c1ccccc1NC(=O)CSc1nc2[nH]ncc2c(=O)[nH]1 | inactive: 110%
35 | COc1ccc(Cl)cc1NC(=O)CSc1nnc2c3cc(C)ccc3n(C)c2n1 | inactive: 98.9%
36 | Cc1cc2c(c(=O)n1CCCN1CCOCC1)C(c1ccc(Cl)cc1)C(C#N)=C(N)O2 (stereo unspecified) | inactive: 121%
37 | Cc1cc(C)n(-c2cc(Nc3ccc4c(c3)OCCO4)ncn2)n1 | inactive: 4.62%
38 | c1coc(-c2nn3c(-c4ccco4)nnc3s2)c1 | inactive: 94.2%
39 | COc1ccc(CCNC(=O)C(=O)Nc2ccc(F)c(F)c2)cc1 | inactive: 100%
40 | CCOc1ccc(NC(=S)NCCNc2nc3cc(C)cc(C)c3cc2C#N)cc1 | inactive: 80.8%
41 | O=C1NC(c2ccc(F)cc2)C(C(=O)c2cccs2)C(O)(C(F)(F)F)N1 (stereo unspecified) | inactive: 86.8%
42 | CC(=O)Nc1ccc(NC(=O)c2sc3nc4c(c(-c5ccc(C)cc5)c3c2N)CCC4)cc1 | inactive: 95.7%
43 | COc1ccc2nc(CN[C@@H]3CCC(=O)N[C@H]3c3cc(F)cc(F)c3)ccc2c1 | inactive: 93.9%
44 | COc1ccc2cc(C)c3nn(CCNC(=O)c4cscn4)c(=O)n3c2c1 | inactive: 81.2%
45 | Cn1c(=O)c2c(nc(NCc3ccccc3)n2Cc2cccc3ccccc23)n(C)c1=O | inactive: 113%
46 | CCn1/c(=N\C(=O)CS(=O)(=O)c2ccccc2)sc2cc([N+](=O)[O-])ccc21 | inactive: 55.4%

2 records drawn at random from the list so far:
Row | SMILES | intracellular bacterial bioluminescence
18 | O=C(Nc1nc2c(s1)COc1ccccc1-2)c1cccc(NS(=O)(=O)c2ccc(F)cc2)c1 | inactive: 78.1%
21 | Cc1cc2oc(C(=O)NCc3ccc4c(c3)OCO4)c(C)c2cc1C | inactive: 92.1%

Additional entries follow:

Row | SMILES | intracellular bacterial bioluminescence
47 | Cc1nc2nc(Cc3cccc(F)c3)nn2c(NCc2cccs2)c1C | inactive: 91.2%
48 | O=C(CCC(=O)Nc1noc2ccccc12)NCCc1ccc(Cl)cc1 | inactive: 27.4%
49 | O=C(/C=C/c1ccccc1)Nc1nnc(-c2ccc(F)cc2)o1 | inactive: 99.7%
50 | CCOC(=O)c1sc(NC(=O)CSc2ncnc3sc(C)c(C)c23)c(C(=O)OCC)c1C | inactive: 81%
51 | CC(=O)Nc1ccc(NC(=O)c2ncoc2-c2ccc(F)cc2)cc1C | inactive: 119%
52 | COC(CNC(=O)c1c(O)nc2ccccn2c1=O)OC | inactive: 123%
53 | Cc1nc(Nc2ccccc2)c([N+](=O)[O-])c(Nc2ccccc2)n1 | inactive: 117%
54 | O=C(c1cnc2ccccc2c1S(=O)(=O)c1cccc(F)c1)N1CCSCC1 | inactive: 93.2%
55 | O=C(CSc1nc(C2CC2)nc2ccccc12)Nc1ccc2c(c1)OCO2 | inactive: 90.5%
56 | NC(=O)c1c(NC(=O)/C=C/c2cccs2)sc2c1CCCCC2 | inactive: 87%
57 | COCCCNC(=O)c1cc(-c2ccc(C)cc2)nc2n[nH]c(-c3ccc(F)cc3)c12 | inactive: 134%
58 | Cc1nc2nc(Cc3cccc(F)c3)nn2c(N2CCN(Cc3ccc4c(c3)OCO4)CC2)c1C | inactive: 131%
59 | Cc1cccc(C2(O)CCN(C(=O)c3sc4ncn(C)c(=O)c4c3C)CC2)c1 | inactive: 103%
60 | COc1ccc(CC(=O)Nc2cc(NC(=O)c3cccs3)ccc2C)cc1OC | inactive: 80.2%
61 | Cc1cc2nc(C3CCN(CC(=O)Nc4ccccc4C(F)(F)F)CC3)[nH]c2cc1C | active: 213%
62 | CCOC(=O)c1[nH]c2ccc(OC)cc2c1NC(=S)N1CCN(C(=O)OCC)CC1 | inactive: 65.3%
63 | CCC(C)Sc1nc2c(c(=O)[nH]1)C(c1cccnc1)C1=C(CC(C)(C)CC1=O)N2 (stereo unspecified) | inactive: 106%
64 | COc1cc(NC(=O)c2cnc(C)cn2)ccc1NC(=O)C1CCCCC1 | inactive: 105%
65 | CC1CCN(C(=O)c2cnc3ccc(Cl)cc3c2O)CC1 | inactive: 92.3%
66 | Cn1c2ccccc2c2nnc(SCC(=O)Nc3ccc4c(c3)CCC4)nc21 | inactive: 6.08%
67 | CCCn1cc(C(=O)Nc2ccc3c(c2)OCCO3)c2nn(-c3ccccc3)c(=O)c-2c1 | inactive: 84.8%
68 | O=C(COc1ccccc1C1CC(c2ccccc2)=NN1C(=O)c1ccccc1)NCCO (stereo unspecified) | inactive: 121%
69 | O=c1[nH]c(SC/C=C/c2ccccc2)nc2sc3c(c12)CCC3 | inactive: 85.4%

Row | SMILES | intracellular bacterial bioluminescence
70 | Cn1c(=O)n(CC(N)=O)c(=O)c2c1nc1n2CCCN1c1ccc(Br)cc1 | inactive: 96.7%
71 | COc1ccccc1NC(=O)c1cnn2c(=O)cc(C(C)C)[nH]c12 | inactive: 89.4%
72 | COc1ccc(OC)c2sc(N(CCCn3ccnc3)C(=O)c3ccco3)nc12 | inactive: 75.7%
73 | COc1ccc(C2=N/C(=C/c3cccnc3)C(=O)O2)cc1OC | inactive: 93.3%
74 | O=C(/C=C/c1cccs1)Nc1nc2c(cc3c4c(cccc42)CC3)s1 | inactive: 109%
75 | COc1ccc(NC2CC(=O)N(c3cc([N+](=O)[O-])ccc3C)C2=O)cc1 (stereo unspecified) | inactive: 91.2%
76 | O=C(CSC1=NS(=O)(=O)c2ccccc2N1)NCC1CCCO1 (stereo unspecified) | inactive: 112%
77 | O=C(CSc1ncc(S(=O)(=O)c2ccc(Cl)cc2)c(=O)[nH]1)Nc1ccccc1F | inactive: 111%
78 | CC1CCN(S(=O)(=O)c2ccc(C(=O)Nc3cc(C(F)(F)F)ccc3Cl)cc2)CC1 | inactive: 118%
79 | COCCCNC(=O)Cn1c(-c2cccs2)cc2cccnc21 | inactive: 102%
80 | CCc1cccc(NC(=O)c2cc3n(n2)CCCN(Cc2ccccc2)C3=O)c1 | inactive: 59.5%
81 | CCOC(=O)C1=C(C)NC(O)=NC1c1cc(Br)c(O)c(OC)c1 (stereo unspecified) | inactive: 79.3%
82 | Cc1ccc(-c2nc3c(c(SCC(N)=O)n2)Cc2cc(C)ccc2O3)cc1 | inactive: 90.9%
83 | Cc1cc2nc(NC(=O)c3ccc(S(=O)(=O)N4CCCC(C)C4)cc3)sc2cc1C (stereo unspecified) | inactive: 100%
84 | O=C(Nc1cccc(F)c1)c1cnc2n(c1=O)CCS2 | inactive: 96.5%
85 | COC(=O)C1=C(N)Oc2cc(C)[nH]c(=O)c2C1c1cccc(OC)c1 (stereo unspecified) | inactive: 125%
86 | CCOC(=O)c1ccsc1NC(=O)c1coc2ccccc2c1=O | inactive: 118%
87 | O=C1CCc2cc(S(=O)(=O)NCc3ccco3)cc3c2N1CC3 | inactive: 126%
88 | CCOC(=O)c1cccc(NC(=O)C2CCN(c3nccc4c(C)nn(CC)c34)CC2)c1 | inactive: 25.5%
89 | CCc1ccc(NC(=O)c2sc3nc4c(c(-c5ccco5)c3c2N)CCCC4)cc1 | inactive: 79.7%
90 | N#Cc1ccc(-c2ccco2)nc1SCC(=O)NCc1ccc2c(c1)OCO2 | inactive: 108%
91 | CCc1ccccc1NS(=O)(=O)c1cc(-c2ccn[nH]2)cs1 | inactive: 94.4%

Compounds from the list above that contain a CF3 group, in the order listed:
Row | SMILES | intracellular bacterial bioluminescence
41 | O=C1NC(c2ccc(F)cc2)C(C(=O)c2cccs2)C(O)(C(F)(F)F)N1 (stereo unspecified) | inactive: 86.8%
61 | Cc1cc2nc(C3CCN(CC(=O)Nc4ccccc4C(F)(F)F)CC3)[nH]c2cc1C | active: 213%
78 | CC1CCN(S(=O)(=O)c2ccc(C(=O)Nc3cc(C(F)(F)F)ccc3Cl)cc2)CC1 | inactive: 118%
